The values below come from PMC10523983.

Sequences of proteins named here, by UniProt entry; tags and fusion partners are left off. A change or cut given only in a name is not applied to a line headed by its entry.
UniProt Q16763: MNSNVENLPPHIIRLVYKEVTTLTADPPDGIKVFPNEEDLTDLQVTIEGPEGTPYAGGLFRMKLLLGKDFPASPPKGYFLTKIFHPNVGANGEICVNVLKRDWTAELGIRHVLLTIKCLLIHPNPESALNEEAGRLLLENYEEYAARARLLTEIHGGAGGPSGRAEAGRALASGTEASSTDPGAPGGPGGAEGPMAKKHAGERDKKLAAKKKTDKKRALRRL
UniProt P40337: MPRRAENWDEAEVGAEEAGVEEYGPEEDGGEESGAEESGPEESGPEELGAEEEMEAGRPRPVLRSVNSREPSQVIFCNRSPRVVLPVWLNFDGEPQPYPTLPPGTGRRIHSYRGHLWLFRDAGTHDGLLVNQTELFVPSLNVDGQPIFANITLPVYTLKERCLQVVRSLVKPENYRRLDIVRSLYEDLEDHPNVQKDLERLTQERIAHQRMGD

No constants are given. Whether binding was seen depends on the method and setting. Binding seen in cells or lysates may run through a third protein. Some results given as binding are weak or reduced against the parent protein; the word gives no strength.

The target of assay [1] is Ubiquitin-conjugating enzyme E2S (UBE2S) (human) (UniProt Q16763). Kind of assay: co-IP; HCCLM3 cells transfected with the UBE2S plasmid, 12 h with 10 mM MG132; NP40 lysate immunoprecipitated with anti-UBE2S antibodies (4°C overnight, protein A + G Sepharose beads), western blot for VHL. A general note: Immunoblotting shows a protein as a band on a membrane.
For assay [2], the target named is von Hippel-Lindau (VHL) protein (human (endogenous in HCCLM3 and Bel-7402)) (UniProt P40337). Kind of assay: co-IP; Bel-7402 cells, in the presence of 10 mM MG132; NP40 lysate immunoprecipitated with anti-VHL antibodies (4°C overnight, protein A + G Sepharose beads), western blot for UBE2S.

Consider “von Hippel-Lindau (VHL) protein (from UniProt P40337 1-213)”, for which the binding entry in assay [1] is “binds”.

With “Ubiquitin-conjugating enzyme E2S (UBE2S) (from UniProt Q16763 1-222)”, the binding entry in assay [2] is on record as “binds”.
